Reference: patent publication US20140220110A1, “REMOTE LOADING OF SPARINGLY WATER-SOLUBLE DRUGS INTO LIPOSOMES” (ZONEONE PHARMA, INC., priority 2013, published 2014)
Values joined by “and” are separate entries in the source; they are usually repeats but may differ in a detail not shown here. Equal values may be shown once. For at least one compound, name, drawing or mass did not settle the structure.

Test: Remote loading of deferasirox precipitate into liposomes using an acetate gradient
Assay type: physicochemical
Details: for DFX loading efficiency: listed as DFX

SMILES: O=C(O)c1ccc(-n2nc(-c3ccccc3O)nc2-c2ccccc2O)cc1 [deferasirox]
- DFX loading efficiency (3 mol HSPC/0.5 mol Chol, 120 mM calcium acetate, target 100 g DFX/mol phospholipid): > 90% and 92.5 ± 0.33%
- DFX loading efficiency (3 mol HSPC/0.5 mol Chol, 120 mM sodium sulfate (control), target 100 g DFX/mol phospholipid): 3.3% and 3.3 ± 0.14%
- DFX loading efficiency (3 mol POPC/0.5 mol Chol, 120 mM calcium acetate, target 100 g DFX/mol phospholipid): > 90% and 94.8 ± 1.46%
- loading into acetate gradient liposomes over control liposomes (Example 16): 28 fold
- efficiency of loading (POPC/cholesterol, 120 mM calcium acetate, target 100 g DFX/mol phospholipid (Example 18)): 97.6±0.41%
- efficiency of loading (POPC/cholesterol, 120 mM magnesium acetate, target 100 g DFX/mol phospholipid): 99.2±2.42%
- efficiency of loading (POPC/cholesterol, 120 mM zinc acetate, target 100 g DFX/mol phospholipid): 5.3±0.07%
- efficiency of loading (POPC/cholesterol, target 100 g DFX/mol phospholipid, 120, 250 or 500 mM calcium acetate): 99.2 to 103%
- efficiency of loading (input 300 g DFX/mol phospholipid, all three calcium acetate concentrations): < 24%
- efficiency with 250 or 500 mM over 120 mM internal calcium acetate (target 200 g DFX/mol phospholipid): at least two-fold greater
